Assay results taken from the supplement of paper PMC10849652.
The other results are listed elsewhere or left out.

By UniProt entry, the sequences of proteins in these tests, tags left out. Where a name states a change or a piece, a line headed by the entry shows the natural chain unless it says otherwise.
UniProt Q53EU6: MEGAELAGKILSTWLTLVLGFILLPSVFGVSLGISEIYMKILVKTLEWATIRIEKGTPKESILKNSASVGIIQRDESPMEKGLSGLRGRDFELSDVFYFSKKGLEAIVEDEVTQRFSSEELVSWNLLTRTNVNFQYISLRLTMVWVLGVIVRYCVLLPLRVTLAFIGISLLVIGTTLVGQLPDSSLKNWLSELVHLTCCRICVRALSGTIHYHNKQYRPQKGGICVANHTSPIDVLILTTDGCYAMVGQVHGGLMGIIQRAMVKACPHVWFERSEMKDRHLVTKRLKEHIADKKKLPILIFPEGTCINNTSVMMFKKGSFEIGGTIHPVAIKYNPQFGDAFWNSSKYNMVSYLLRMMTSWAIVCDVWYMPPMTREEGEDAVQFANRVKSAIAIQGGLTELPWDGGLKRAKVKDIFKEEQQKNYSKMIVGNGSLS
UniProt Q8N954: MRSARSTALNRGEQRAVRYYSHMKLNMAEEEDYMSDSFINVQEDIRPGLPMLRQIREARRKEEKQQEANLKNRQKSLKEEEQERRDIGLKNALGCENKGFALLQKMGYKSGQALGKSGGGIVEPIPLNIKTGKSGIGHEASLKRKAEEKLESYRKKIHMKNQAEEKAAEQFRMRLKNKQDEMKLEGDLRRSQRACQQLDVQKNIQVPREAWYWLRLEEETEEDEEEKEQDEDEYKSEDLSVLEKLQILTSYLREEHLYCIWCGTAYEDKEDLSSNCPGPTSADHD
UniProt Q9Y5P6: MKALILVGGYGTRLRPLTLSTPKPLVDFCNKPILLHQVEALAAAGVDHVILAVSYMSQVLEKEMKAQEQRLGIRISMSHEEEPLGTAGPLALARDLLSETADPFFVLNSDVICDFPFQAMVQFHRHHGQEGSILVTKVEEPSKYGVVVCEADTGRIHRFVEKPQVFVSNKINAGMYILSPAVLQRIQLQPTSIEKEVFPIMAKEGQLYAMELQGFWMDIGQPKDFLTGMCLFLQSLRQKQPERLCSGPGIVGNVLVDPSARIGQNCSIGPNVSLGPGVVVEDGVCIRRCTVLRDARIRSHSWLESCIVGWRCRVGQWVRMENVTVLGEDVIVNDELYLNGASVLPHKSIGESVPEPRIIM
UniProt Q9HAV0, whole entry, looked up: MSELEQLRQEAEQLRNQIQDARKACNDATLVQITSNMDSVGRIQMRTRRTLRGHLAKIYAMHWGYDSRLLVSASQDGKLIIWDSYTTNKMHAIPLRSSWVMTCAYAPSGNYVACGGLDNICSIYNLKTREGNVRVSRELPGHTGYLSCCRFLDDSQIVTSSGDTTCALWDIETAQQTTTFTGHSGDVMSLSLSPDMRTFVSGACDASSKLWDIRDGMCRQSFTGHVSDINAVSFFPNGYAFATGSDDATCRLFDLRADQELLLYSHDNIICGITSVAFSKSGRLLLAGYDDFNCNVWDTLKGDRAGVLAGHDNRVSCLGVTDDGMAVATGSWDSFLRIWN
UniProt P36915, whole entry, looked up: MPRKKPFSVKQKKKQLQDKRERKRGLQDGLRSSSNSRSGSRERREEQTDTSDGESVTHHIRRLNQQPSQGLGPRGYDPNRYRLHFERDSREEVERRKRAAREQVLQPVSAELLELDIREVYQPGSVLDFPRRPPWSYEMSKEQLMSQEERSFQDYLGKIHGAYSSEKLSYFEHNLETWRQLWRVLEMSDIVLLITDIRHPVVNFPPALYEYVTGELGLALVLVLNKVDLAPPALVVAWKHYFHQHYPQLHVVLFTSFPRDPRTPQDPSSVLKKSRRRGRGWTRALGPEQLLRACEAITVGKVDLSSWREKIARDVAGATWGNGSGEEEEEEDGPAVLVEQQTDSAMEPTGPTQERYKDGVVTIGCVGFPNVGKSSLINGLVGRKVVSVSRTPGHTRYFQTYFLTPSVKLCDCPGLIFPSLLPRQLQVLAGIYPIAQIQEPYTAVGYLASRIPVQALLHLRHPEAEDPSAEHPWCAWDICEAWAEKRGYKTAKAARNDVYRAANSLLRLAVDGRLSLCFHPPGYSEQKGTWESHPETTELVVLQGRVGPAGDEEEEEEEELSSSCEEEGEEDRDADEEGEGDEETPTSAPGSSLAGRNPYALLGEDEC
UniProt P49840: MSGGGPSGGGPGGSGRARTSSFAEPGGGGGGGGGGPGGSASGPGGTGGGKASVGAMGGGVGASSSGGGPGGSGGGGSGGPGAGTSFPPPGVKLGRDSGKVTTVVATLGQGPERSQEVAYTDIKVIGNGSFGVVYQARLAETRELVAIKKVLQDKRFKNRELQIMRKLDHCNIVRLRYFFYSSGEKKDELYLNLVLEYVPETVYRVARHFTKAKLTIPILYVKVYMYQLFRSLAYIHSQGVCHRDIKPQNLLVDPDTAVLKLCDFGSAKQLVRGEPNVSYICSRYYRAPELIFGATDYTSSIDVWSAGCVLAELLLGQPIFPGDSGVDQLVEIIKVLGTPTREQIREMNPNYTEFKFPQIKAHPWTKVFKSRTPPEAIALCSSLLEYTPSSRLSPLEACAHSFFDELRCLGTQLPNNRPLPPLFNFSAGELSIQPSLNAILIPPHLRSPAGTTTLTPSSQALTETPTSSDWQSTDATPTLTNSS
UniProt Q86UL3: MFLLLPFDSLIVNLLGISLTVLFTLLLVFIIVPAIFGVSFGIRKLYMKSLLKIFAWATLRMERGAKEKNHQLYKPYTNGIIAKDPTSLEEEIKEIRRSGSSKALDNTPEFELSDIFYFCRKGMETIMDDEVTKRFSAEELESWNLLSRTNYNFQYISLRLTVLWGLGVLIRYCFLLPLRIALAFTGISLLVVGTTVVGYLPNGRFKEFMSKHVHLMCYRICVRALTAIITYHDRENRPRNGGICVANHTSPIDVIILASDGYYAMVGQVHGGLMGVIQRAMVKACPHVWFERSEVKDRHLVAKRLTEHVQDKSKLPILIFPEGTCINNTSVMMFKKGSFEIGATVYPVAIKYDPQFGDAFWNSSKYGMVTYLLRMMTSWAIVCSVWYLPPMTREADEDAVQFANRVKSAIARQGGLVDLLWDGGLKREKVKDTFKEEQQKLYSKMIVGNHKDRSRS
UniProt O60547: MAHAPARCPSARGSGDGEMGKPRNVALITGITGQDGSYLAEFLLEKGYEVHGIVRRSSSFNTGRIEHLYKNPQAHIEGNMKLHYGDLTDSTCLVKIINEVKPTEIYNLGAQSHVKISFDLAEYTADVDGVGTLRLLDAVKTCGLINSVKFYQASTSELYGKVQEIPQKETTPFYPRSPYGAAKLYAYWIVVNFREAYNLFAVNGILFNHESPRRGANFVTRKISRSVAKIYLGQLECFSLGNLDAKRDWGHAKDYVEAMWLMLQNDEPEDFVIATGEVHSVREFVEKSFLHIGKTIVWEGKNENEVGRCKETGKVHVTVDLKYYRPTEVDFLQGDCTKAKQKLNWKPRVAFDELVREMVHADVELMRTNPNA
UniProt Q13098: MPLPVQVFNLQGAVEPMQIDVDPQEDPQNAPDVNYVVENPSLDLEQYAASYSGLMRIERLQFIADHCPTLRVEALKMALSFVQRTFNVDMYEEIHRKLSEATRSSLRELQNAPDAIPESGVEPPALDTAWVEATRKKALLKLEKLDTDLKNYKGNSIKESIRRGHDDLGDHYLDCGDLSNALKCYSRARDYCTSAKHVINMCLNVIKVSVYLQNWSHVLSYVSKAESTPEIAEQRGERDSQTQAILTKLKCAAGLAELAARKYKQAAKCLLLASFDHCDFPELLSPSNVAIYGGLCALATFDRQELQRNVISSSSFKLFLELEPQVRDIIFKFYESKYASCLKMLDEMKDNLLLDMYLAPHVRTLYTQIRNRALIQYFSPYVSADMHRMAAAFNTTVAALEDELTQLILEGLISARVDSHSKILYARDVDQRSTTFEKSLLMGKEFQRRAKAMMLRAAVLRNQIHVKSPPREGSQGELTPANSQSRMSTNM
UniProt P17900: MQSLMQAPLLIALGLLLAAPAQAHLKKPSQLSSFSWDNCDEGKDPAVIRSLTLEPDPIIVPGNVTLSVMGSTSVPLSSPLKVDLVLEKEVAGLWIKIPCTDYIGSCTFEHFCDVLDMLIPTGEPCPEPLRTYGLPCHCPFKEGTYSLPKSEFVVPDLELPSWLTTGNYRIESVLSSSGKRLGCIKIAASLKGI
UniProt B7ZAQ6: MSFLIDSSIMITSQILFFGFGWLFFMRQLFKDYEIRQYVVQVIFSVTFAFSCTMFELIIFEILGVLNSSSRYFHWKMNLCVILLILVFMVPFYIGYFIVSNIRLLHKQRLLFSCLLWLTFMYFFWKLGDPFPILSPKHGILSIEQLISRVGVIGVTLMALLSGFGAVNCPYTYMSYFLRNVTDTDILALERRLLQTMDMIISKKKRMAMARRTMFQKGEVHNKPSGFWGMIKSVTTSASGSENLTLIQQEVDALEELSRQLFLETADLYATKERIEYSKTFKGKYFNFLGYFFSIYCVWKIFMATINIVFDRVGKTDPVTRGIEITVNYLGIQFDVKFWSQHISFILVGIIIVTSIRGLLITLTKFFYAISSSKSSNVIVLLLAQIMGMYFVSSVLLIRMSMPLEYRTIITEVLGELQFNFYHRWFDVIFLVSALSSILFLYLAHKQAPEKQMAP
UniProt Q9Y223: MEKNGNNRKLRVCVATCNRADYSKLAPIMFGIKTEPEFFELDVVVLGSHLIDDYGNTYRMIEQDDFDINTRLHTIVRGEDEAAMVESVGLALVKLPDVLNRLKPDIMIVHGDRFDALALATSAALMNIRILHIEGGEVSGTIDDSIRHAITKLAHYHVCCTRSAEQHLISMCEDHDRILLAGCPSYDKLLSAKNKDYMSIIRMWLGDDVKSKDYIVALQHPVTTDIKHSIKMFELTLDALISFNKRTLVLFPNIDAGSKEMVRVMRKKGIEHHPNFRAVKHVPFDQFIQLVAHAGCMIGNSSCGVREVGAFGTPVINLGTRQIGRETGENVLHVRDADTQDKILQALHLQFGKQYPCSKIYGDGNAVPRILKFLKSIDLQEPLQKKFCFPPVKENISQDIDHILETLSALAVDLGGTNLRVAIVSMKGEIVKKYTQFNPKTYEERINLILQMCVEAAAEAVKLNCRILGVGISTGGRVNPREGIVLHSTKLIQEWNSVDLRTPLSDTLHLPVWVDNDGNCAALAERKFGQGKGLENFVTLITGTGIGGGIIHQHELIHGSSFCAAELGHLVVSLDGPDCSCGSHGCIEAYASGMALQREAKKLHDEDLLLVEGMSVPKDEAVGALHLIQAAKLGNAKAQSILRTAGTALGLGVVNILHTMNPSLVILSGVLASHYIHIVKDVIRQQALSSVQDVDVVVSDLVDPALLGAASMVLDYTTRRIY
UniProt Q96EK6: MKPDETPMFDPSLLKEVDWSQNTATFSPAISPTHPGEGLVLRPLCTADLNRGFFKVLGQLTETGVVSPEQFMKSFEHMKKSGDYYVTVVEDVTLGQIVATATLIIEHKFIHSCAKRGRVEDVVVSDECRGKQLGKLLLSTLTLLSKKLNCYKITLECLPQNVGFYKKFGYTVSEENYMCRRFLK
UniProt Q9UBQ7: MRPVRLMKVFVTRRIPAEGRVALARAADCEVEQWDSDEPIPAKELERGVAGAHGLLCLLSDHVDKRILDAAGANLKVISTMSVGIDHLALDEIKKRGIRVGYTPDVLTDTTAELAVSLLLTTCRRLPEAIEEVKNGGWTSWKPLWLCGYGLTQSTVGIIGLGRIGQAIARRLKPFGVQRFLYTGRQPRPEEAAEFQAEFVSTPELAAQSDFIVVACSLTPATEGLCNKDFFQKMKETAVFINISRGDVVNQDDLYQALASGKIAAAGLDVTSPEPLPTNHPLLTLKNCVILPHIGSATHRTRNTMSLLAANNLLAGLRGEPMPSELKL
UniProt Q9UHW5, whole entry, looked up: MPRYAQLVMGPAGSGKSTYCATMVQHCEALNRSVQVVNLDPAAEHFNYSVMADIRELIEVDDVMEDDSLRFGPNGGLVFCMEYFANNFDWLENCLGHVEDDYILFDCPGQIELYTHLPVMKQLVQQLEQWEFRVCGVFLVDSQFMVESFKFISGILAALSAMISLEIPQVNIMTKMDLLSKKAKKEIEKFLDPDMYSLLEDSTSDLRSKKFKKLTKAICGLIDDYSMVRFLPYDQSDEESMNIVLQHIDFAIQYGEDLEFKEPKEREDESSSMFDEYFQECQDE
UniProt Q9NS18: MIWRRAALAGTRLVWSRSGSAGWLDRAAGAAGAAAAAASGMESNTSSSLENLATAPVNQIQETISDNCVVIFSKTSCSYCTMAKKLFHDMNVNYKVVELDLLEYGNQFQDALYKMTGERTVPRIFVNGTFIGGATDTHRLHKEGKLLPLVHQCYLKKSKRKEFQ
UniProt Q9P2T1: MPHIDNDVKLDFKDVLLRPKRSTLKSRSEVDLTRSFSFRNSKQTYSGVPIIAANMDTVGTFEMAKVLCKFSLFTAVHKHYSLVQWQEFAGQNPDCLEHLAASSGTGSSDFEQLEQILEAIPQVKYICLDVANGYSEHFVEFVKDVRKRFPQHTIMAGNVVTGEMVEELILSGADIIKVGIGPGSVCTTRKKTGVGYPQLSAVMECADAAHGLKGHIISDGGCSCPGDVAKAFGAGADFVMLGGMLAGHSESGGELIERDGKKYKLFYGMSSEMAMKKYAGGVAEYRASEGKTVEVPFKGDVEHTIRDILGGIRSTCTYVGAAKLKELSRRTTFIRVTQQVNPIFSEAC

Compound: CN1C2=C(C3=C1C(=O)N(N=C3)CC4=CC(=CC=C4)N)SC(=C2)S(=O)C
Test: log2 fold change, soluble protein after heating vs DMSO (PISA); higher = thermal stabilisation; K562 cells, 10 uM, 30 min; active = over 0.2 and 3.5 SD of the protein, either way, in both replicates (recomputed)
Outline: (§1)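 K562 cells at 2×10^6 cells/mL were given 10 μM compound for 30 min. Aliquots then went through 3 min of heating across 48°C-58°C, were pooled, and were extracted in PBS with 0.5% NP-40 at 4°C, and the supernatant after 21,000xg for 90 min was quantified by TMTpro 16plex LC-MS/MS with channel sums equalised. Thermal stability relative to control samples, from duplicates, is given as log2 fold change.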

Target	log2 fold change
GPAT3 (UniProt Q53EU6)	inactive: -0.001
GK (UniProt P32189)	inactive: -0.009
GLYR1 (UniProt Q49A26)	inactive: -0.019
GPATCH11 (UniProt Q8N954)	inactive: -0.009
GPKOW (UniProt Q92917)	inactive: 0.022
GNB1 (UniProt P62873)	inactive: -0.185
GINS1 (UniProt Q14691)	inactive: -0.036
GNB2 (UniProt P62879)	inactive: -0.079
GNAI2 isoform 4 (UniProt P04899)	inactive: -0.069
GPALPP1 (UniProt Q8IXQ4)	inactive: -0.09
GMPPB isoform 2 (UniProt Q9Y5P6)	inactive: -0.106
GNB4 (UniProt Q9HAV0)	inactive: 0.008
GPHN isoform 2 (UniProt Q9NQX3)	inactive: -0.033
GNL1 (UniProt P36915)	inactive: -0.083
GSK3A (UniProt P49840)	inactive: -0.066
GPAT4 (UniProt Q86UL3)	inactive: -0.063
GIPC1 (UniProt O14908)	inactive: -0.037
GNB1L (UniProt Q9BYB4)	inactive: -0.056
GMNN (UniProt O75496)	inactive: -0.051
GMDS (UniProt O60547)	inactive: -0.071

Target	log2 fold change
GPS1 isoform 7 (UniProt Q13098)	inactive: -0.041
GINS4 (UniProt Q9BRT9)	inactive: -0.056
GM2A (UniProt P17900)	inactive: 0.056
GLRX5 (UniProt Q86SX6)	inactive: -0.045
GINS3 (UniProt Q9BRX5)	inactive: -0.02
GNPDA1 (UniProt P46926)	inactive: -0.069
GMEB2 (UniProt Q9UKD1)	inactive: -0.03
GPN1 isoform 5 (UniProt Q9HCN4)	inactive: -0.007
GPR89A (UniProt B7ZAQ6)	inactive: -0.056
GINS2 (UniProt Q9Y248)	inactive: 0.064
GOLGA5 (UniProt Q8TBA6)	inactive: -0.023
GNE isoform 2 (UniProt Q9Y223)	inactive: -0.062
GNPNAT1 (UniProt Q96EK6)	inactive: -0.04
GLOD4 isoform 2 (UniProt Q9HC38)	inactive: -0.093
GRHPR (UniProt Q9UBQ7)	inactive: -0.099
GPN3 isoform 2 (UniProt Q9UHW5)	inactive: -0.081
GLRX2 isoform 2 (UniProt Q9NS18)	inactive: -0.037
GMPR2 isoform 2 (UniProt Q9P2T1)	inactive: -0.041
GRSF1 (UniProt Q12849)	inactive: 0.262
GRB2 (UniProt P62993)	inactive: -0.076

Compound: CN1CCC(CNc2ccc3ncc(-c4cccc(OC(F)(F)F)c4)n3n2)CC1
Test: as above
Outline: as §1

Target	log2 fold change
GK (UniProt P32189)	inactive: 0.099
GLYR1 (UniProt Q49A26)	inactive: 0.041
GPATCH11 (UniProt Q8N954)	inactive: -0.06
GPKOW (UniProt Q92917)	inactive: -0.248
GNB1 (UniProt P62873)	inactive: 0.242
GINS1 (UniProt Q14691)	inactive: 0.017
GNB2 (UniProt P62879)	active: 0.3
GNAI2 isoform 4 (UniProt P04899)	inactive: 0.153
GPALPP1 (UniProt Q8IXQ4)	inactive: -0.061
GMPPB isoform 2 (UniProt Q9Y5P6)	inactive: -0.031
GNB4 (UniProt Q9HAV0)	inactive: 0.215
GPHN isoform 2 (UniProt Q9NQX3)	inactive: -0.029
GNL1 (UniProt P36915)	inactive: -0.053
GSK3A (UniProt P49840)	inactive: 0.033
GPAT4 (UniProt Q86UL3)	inactive: 0.143
GIPC1 (UniProt O14908)	inactive: -0.029
GNB1L (UniProt Q9BYB4)	inactive: -0.005
GMNN (UniProt O75496)	inactive: -0.012
GMDS (UniProt O60547)	inactive: -0.051

Target	log2 fold change
GPS1 isoform 7 (UniProt Q13098)	inactive: 0.017
GINS4 (UniProt Q9BRT9)	inactive: -0.02
GM2A (UniProt P17900)	inactive: -0.02
GINS3 (UniProt Q9BRX5)	inactive: -0.076
GNPDA1 (UniProt P46926)	inactive: -0.055
GMEB2 (UniProt Q9UKD1)	inactive: -0.075
GPN1 isoform 5 (UniProt Q9HCN4)	inactive: -0.045
GPR89A (UniProt B7ZAQ6)	inactive: -0.027
GINS2 (UniProt Q9Y248)	inactive: 0.062
GOLGA5 (UniProt Q8TBA6)	inactive: 0.107
GNE isoform 2 (UniProt Q9Y223)	inactive: 0.014
GNPNAT1 (UniProt Q96EK6)	inactive: -0.121
GLOD4 isoform 2 (UniProt Q9HC38)	inactive: -0.132
GRHPR (UniProt Q9UBQ7)	inactive: -0.013
GPN3 isoform 2 (UniProt Q9UHW5)	inactive: 0.064
GLRX2 isoform 2 (UniProt Q9NS18)	inactive: 0.016
GMPR2 isoform 2 (UniProt Q9P2T1)	inactive: -0.049
GRSF1 (UniProt Q12849)	inactive: -0.266
GRB2 (UniProt P62993)	inactive: -0.051
